# Among all 320,000 compounds or so, about 22,000 (6.9%) were called active. Inconclusive results, whose numbers are uncertain, are shown with a selection of clear calls. Calls follow the shape of the dose curve; as a rule, active = well fitted inhibition curve with a large enough effect; inconclusive = small, poorly fitted or top-dose-only effect, or another doubt; inactive = no such curve, though single readings can be large or run the other way. Where the call is inconclusive, the potency comes from a doubtful curve fit.
# Assay: Primary qHTS for delayed death inhibitors of the malarial parasite plastid, 96 hour incubation
# Details: P. falciparum luciferase reporter growth; series mostly up to 28.7 µM
# Procedure, shortened: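 Two-generation exposure (96 h) targets delayed-death phenotype. Reporter parasites carrying integrated firefly luciferase, in red cells at 2% hematocrit and 0.05% parasitemia final, kept at 37 C, 5% CO2; luminescence loss indicates inhibition.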
# Potency is read from the fitted curve at half-maximal effect.
row,SMILES,Potency
1,Cc1cccc(NC(=O)CSc2nc(N)c(NC(=O)c3ccccc3F)c(=O)[nH]2)c1,"inconclusive: 13.1 µM [inhibitor, single point]"
2,CC(C)CN(C(=O)COC(=O)c1ccc2c(c1)OCCO2)c1c(N)n(Cc2ccccc2)c(=O)[nH]c1=O,"inconclusive: 10.4 µM [inhibitor, partial curve, poor fit]"
3,COc1cc(OC)cc(C(=O)NCC2CCCN(Cc3ccc(SC)cc3)C2)c1 (stereo not drawn),"inconclusive: 10.4 µM [inhibitor, single point]"
4,Cc1c(NCc2ccccc2O)c(=O)n(-c2ccccc2)n1C,inactive
5,CCOc1ccccc1-n1c(SCC(=O)N2CCCC2)nnc1-c1ccoc1C,"inconclusive: 3.7 µM [inhibitor, full curve, poor fit]"
6,CC(=O)Nc1ccc(SCc2csc(C)n2)cc1,"inconclusive: 18.5 µM [inhibitor, single point]"
7,Cc1ccccc1C(=O)NC(C(=O)Nc1nc2c(s1)CCCC2)C(C)C (stereo not drawn),active: 4.65 µM
8,C=CCN1CCN(C(CC(C)C)c2nnnn2CCOC)CC1 (stereo not drawn),inactive
9,CN(C)S(=O)(=O)c1ccc(NC(=O)c2cccnc2)cc1,inactive
10,Cc1c(C(=O)OCC(=O)N2c3ccccc3CC2C)oc2ccccc12 (stereo not drawn),"inconclusive: 13.1 µM [inhibitor, partial curve, poor fit]"
11,CCN(C1CCS(=O)(=O)C1)S(=O)(=O)c1cc(C)ccc1C (stereo not drawn),"inconclusive: 18.5 µM [inhibitor, partial curve, poor fit]"
12,COc1ccc(OC)c(/C=N/NC(=O)CNC(=O)c2ccc(S(=O)(=O)N3CCCC3)cc2)c1,active: 4.15 µM
13,CCOC(=O)C1=C(C(F)(F)F)Nc2ncnn2C1c1cccc(OC)c1OC (stereo not drawn),"inconclusive: 5.22 µM [inhibitor, partial curve, poor fit]"
14,COc1ccc2nnc(-c3ccccc3)n2n1,"inconclusive: 2.33 µM [inhibitor, full curve, poor fit]"
15,CC1C(=NO)C(C)C(c2ccc(N(C)C)cc2)NC1c1ccc(N(C)C)cc1 (stereo not drawn),active: 1.85 µM
16,Cc1nnc(SCCN2CCOCC2)n1C,"inconclusive: 18.5 µM [inhibitor, single point]"
17,CCn1nc(C)c(CCC(=O)O)c1C,"inconclusive: 7.38 µM [inhibitor, partial curve]"
18,Cc1cc(C)c(S(=O)(=O)Nc2ccc(N(C)C)cc2)c(C)c1-n1cnnn1,inactive
19,Cc1onc(-c2ccccc2Cl)c1C(=O)NNC(=O)c1nn(C)cc1Cl,"inconclusive: 4.15 µM [inhibitor, partial curve]"
20,O=C(O)COc1cccc(/C=C2/SC(=S)N(Cc3ccccc3)C2=O)c1,"inconclusive: 18.5 µM [inhibitor, single point]"
21,CC(=O)n1cc([C@H]2C=C(C(=O)N3CCN(Cc4ccccc4)CC3)O[C@@H](OCc3ccc(CO)cc3)C2)c2ccccc21,active: 2.94 µM
22,COc1cccc(C(=O)NCC(c2ccc3c(c2)OCO3)N2CCN(c3ccc(F)cc3)CC2)c1 (stereo not drawn),"inconclusive: 2.94 µM [inhibitor, single point]"

# Some of these compounds in order of SMILES length, ascending:
row,SMILES,Potency
17,CCn1nc(C)c(CCC(=O)O)c1C,"inconclusive: 7.38 µM [inhibitor, partial curve]"
14,COc1ccc2nnc(-c3ccccc3)n2n1,"inconclusive: 2.33 µM [inhibitor, full curve, poor fit]"
8,C=CCN1CCN(C(CC(C)C)c2nnnn2CCOC)CC1 (stereo not drawn),inactive
11,CCN(C1CCS(=O)(=O)C1)S(=O)(=O)c1cc(C)ccc1C (stereo not drawn),"inconclusive: 18.5 µM [inhibitor, partial curve, poor fit]"
5,CCOc1ccccc1-n1c(SCC(=O)N2CCCC2)nnc1-c1ccoc1C,"inconclusive: 3.7 µM [inhibitor, full curve, poor fit]"
19,Cc1onc(-c2ccccc2Cl)c1C(=O)NNC(=O)c1nn(C)cc1Cl,"inconclusive: 4.15 µM [inhibitor, partial curve]"
3,COc1cc(OC)cc(C(=O)NCC2CCCN(Cc3ccc(SC)cc3)C2)c1 (stereo not drawn),"inconclusive: 10.4 µM [inhibitor, single point]"
18,Cc1cc(C)c(S(=O)(=O)Nc2ccc(N(C)C)cc2)c(C)c1-n1cnnn1,inactive
12,COc1ccc(OC)c(/C=N/NC(=O)CNC(=O)c2ccc(S(=O)(=O)N3CCCC3)cc2)c1,active: 4.15 µM
2,CC(C)CN(C(=O)COC(=O)c1ccc2c(c1)OCCO2)c1c(N)n(Cc2ccccc2)c(=O)[nH]c1=O,"inconclusive: 10.4 µM [inhibitor, partial curve, poor fit]"
21,CC(=O)n1cc([C@H]2C=C(C(=O)N3CCN(Cc4ccccc4)CC3)O[C@@H](OCc3ccc(CO)cc3)C2)c2ccccc21,active: 2.94 µM

# Next part:

row,SMILES,Potency
1,Cc1c(C(=O)NCc2cccs2)oc2ccc(S(=O)(=O)N3CCOCC3)cc12,inactive
2,O=C(CS(=O)(=O)c1cn(CC(=O)N2CCOCC2)c2ccccc12)NCc1ccc(F)cc1,"inconclusive: 14.7 µM [inhibitor, partial curve, poor fit]"
3,CCC(=O)N/C(=N/c1nc(C)cc(C)n1)Nc1ccc(OC)cc1,active: 14.7 µM
4,CCCOc1ccccc1-c1nc2n[nH]nc2c(=O)[nH]1,"inconclusive: 19 µM [inhibitor, single point]"
5,Cc1c(C(=O)NCc2ccc3c(c2)OCO3)sc2nc(-c3ccc(F)cc3)cn12,"inconclusive: 18.5 µM [inhibitor, single point]"
6,CCn1cc(/C=N/NC(=O)COc2cccc3cccnc23)c2ccccc21,"inconclusive: 9.28 µM [inhibitor, partial curve, poor fit]"
7,CCN(CC)c1ccc(NC(=O)CSc2nnc(N)s2)cc1C,"inconclusive: 18.5 µM [inhibitor, single point]"
8,Cn1nccc1C(=O)N(CCN1CCCCC1)CC1CCCN(C2CCCC2)C1 (stereo not drawn),inactive
9,O=C(NCc1ccco1)C1CCCCC1,"inconclusive: 18.5 µM [inhibitor, single point]"
10,Cc1cc(C(=O)Nc2ccc(C)c(S(=O)(=O)N3CCOCC3)c2)c2ccccc2n1,"inconclusive: 10.4 µM [inhibitor, partial curve]"
11,CC(OC(=O)CC1CCCC1)C(=O)Nc1ccc(Cl)cn1 (stereo not drawn),inactive
12,CCC(C)Sc1ccc([C@H]2N[C@@](CC(C)C)(C(=O)OC)[C@H]3C(=O)N(CC)C(=O)[C@@H]23)cc1 (stereo partly drawn),"inconclusive: 14.7 µM [inhibitor, partial curve, poor fit]"
13,O=C(Nc1cccc(S(=O)(=O)N2CCCCCC2)c1)c1ccc2ccccc2n1,"inconclusive: 18.5 µM [inhibitor, single point]"
14,Cc1ccc(C(=O)Oc2oc(-c3ccco3)nc2C=Nc2ccc(Cl)cc2)cc1,inactive
15,CC(C)CC(NC(=O)C1CCCN1C(=O)CNC(=O)OCc1ccccc1)C(=O)O (stereo not drawn),inactive
16,CN(CC(=O)Nc1ccc(F)cc1)C(=O)c1ccc(OCc2ccccc2)cc1,inactive
17,COc1ccc(C2=NN(C(=O)CSc3ncccn3)C(c3ccc(OC)cc3)C2)cc1 (stereo not drawn),"inconclusive: 18.5 µM [inhibitor, single point]"
18,CCOC(=O)C1C(c2ccc(O)cc2)NC(=O)NC1(O)C(F)(F)F (stereo not drawn),"inconclusive: 14.7 µM [inhibitor, partial curve, poor fit]"
19,C/C(=N\NC(=O)c1cccnc1)c1ccccc1,"inconclusive: 9.28 µM [inhibitor, single point]"
20,CCc1ccccc1N(CC(=O)NC1CCCCC1)C(=O)CCC(=O)Nc1ccccn1,"inconclusive: 18.5 µM [inhibitor, single point]"
21,CC(=O)Nc1ccc(S(=O)(=O)Nc2ccc3c(c2)OCO3)cc1,inactive

# Source: PubChem BioAssay AID504834 (National Center for Advancing Translational Sciences (NCATS), 2011)
